Values quoted from earlier work in patent US20040009220A1, “Rate-controlled beta blockers and process for forming same” (priority 2001, published 2004).

## CC(C)NCC(O)COc1ccc(CC(N)=O)cc1 (stereo not drawn) [Atenolol]
duodenum
  absorption profile, duodenum: 12%
ileum/colon combined
  absorption profile, ileum/colon combined: 38%
jejunum
  absorption profile, jejunum: 19%
